The results in this text go back to article PMC6458711.

Chains of the proteins cited; added tags and fusions are not shown.
UniProt P27361: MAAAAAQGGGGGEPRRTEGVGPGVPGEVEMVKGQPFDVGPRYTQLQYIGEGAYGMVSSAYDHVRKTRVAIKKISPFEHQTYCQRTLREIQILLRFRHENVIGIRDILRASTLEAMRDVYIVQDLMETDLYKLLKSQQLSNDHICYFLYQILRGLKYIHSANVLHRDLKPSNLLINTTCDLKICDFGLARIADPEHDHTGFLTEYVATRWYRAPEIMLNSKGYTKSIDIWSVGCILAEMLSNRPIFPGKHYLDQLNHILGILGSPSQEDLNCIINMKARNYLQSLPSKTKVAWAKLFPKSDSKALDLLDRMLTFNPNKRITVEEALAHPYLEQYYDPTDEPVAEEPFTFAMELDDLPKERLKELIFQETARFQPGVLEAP

Results are given in words; binding and its absence hold for the method and conditions named. Binding seen in cells or lysates may run through a third protein. Some results given as binding are weak or reduced against the parent protein; the word gives no strength. Tags and fused reporters may be left off the sequences shown.

Assay [1] deals with T1, Transketolase (TKT) wild type, Flag-tagged (human) (UniProt P29401).
T1 sequence: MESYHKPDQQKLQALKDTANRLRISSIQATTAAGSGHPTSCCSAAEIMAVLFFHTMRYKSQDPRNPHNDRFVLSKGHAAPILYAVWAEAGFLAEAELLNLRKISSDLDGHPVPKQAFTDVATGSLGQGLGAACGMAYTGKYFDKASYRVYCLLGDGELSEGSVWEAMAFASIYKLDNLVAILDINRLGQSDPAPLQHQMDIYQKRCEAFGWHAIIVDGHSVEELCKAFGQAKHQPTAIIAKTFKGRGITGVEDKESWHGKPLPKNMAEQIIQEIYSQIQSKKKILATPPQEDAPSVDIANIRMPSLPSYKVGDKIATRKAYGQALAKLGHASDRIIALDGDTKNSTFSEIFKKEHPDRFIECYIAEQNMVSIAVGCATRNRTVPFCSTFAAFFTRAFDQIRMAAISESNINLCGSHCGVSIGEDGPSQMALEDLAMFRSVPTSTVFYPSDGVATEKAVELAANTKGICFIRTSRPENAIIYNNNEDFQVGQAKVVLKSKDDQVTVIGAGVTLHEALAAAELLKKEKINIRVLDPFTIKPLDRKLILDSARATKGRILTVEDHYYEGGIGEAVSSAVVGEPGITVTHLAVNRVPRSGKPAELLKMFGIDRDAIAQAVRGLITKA
In words: co-IP; cross-linking Co-IP and western blot with TKT as bait: Huh7 cells cross-linked, nuclei extracted and lysed by sonication; TKT antibody for Co-IP; blots with Flag, EGFR, MAPK3, IPO4 and NUP54 antibodies. (A western blot detects proteins with antibodies after separation by electrophoresis.)

In assay [2] the target is epidermal growth factor receptor (EGFR) (human (endogenous in Huh7)) (UniProt P00533). In words: co-IP; cross-linking Co-IP and western blot with TKT as prey: TKT-WT overexpressing Huh7 cells cross-linked, nuclei extracted and lysed by sonication; EGFR/MAPK3 antibodies and IgG control for Co-IP; blots with Flag and TKT antibodies.
Assay [3] addresses mitogen-activated protein kinase 3 (MAPK3) (human (endogenous in Huh7)) (UniProt P27361). The assay is described as above.

For the molecule “epidermal growth factor receptor (EGFR) (from UniProt P00533 25-1210)”, the binding result in assay [1] is reported as “binds”.

On to “mitogen-activated protein kinase 3 (MAPK3) (from UniProt P27361 1-379) (enzyme)”, for which the binding entry in assay [1] is reported as “binds”.

B1: nucleoporin 54 (NUP54) (protein, UniProt Q7Z3B4 1-507)
chain: MAFNFGAPSGTSGTAAATAAPAGGFGGFGTTSTTAGSAFSFSAPTNTGTTGLFGGTQNKGFGFGTGFGTTTGTSTGLGTGLGTGLGFGGFNTQQQQQTTLGGLFSQPTQAPTQSNQLINTASALSAPTLLGDERDAILAKWNQLQAFWGTGKGYFNNNIPPVEFTQENPFCRFKAVGYSCMPSNKDEDGLVVLVFNKKETEIRSQQQQLVESLHKVLGGNQTLTVNVEGTKTLPDDQTEVVIYVVERSPNGTSRRVPATTLYAHFEQANIKTQLQQLGVTLSMTRTELSPAQIKQLLQNPPAGVDPIIWEQAKVDNPDSEKLIPVPMVGFKELLRRLKVQDQMTKQHQTRLDIISEDISELQKNQTTSVAKIAQYKRKLMDLSHRTLQVLIKQEIQRKSGYAIQADEEQLRVQLDTIQGELNAPTQFKGRLNELMSQIRMQNHFGAVRSEERYYIDADLLREIKQHLKQQQEGLSHLISIIKDDLEDIKLVEHGLNETIHIRGGVFS
For the molecule B1, the binding entry in assay [1] is given as “binds”.

B2: Transketolase (TKT) wild type, Flag-tagged (enzyme, UniProt P29401-1 1-623)
chain: T1 sequence
In the case of B2, the binding entry in assay [2] and in assay [3] was “binds” throughout.
